## Assay results

Source: PubChem BioAssay AID912 (NCATS, 2007).

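Uptake of anthrax lethal toxin into cultured cells, read by FRET (460/530 nm ratio) and reported from the 460 nm channel; the cell line is not named here. Each compound was tested as a concentration series from about 0.0005 to 40 µM. The number is the fitted AC50 of the 460 nm signal alone; lower values mean a more potent effect. A falling signal goes with compounds filed as inhibitors or cytotoxic, a rising one with activators or fluorescent compounds (inferred from the filed classes).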

Values are in nM. Common to all entries: measured here: 460 nm channel. This is a side read-out of the assay, for part of the compounds, not drawn at random. A potency from a partial, single-point or poor curve is only a rough figure. The first word of each remark tells which way the curve ran; it can be opposite to the aim of the assay.

structure: CN(C)c1ncc2nc(-c3cccc(C#N)c3)c(=O)n(CCC#N)c2n1
AC50 (nM): 5012
remark: rising, single point

structure: Cn1cccc1C(=O)N1CCC2(CC1)CCN(c1ccccc1)CC2
AC50 (nM): 794.3
remark: rising, full curve

structure: CN(C)CCCSC(=N)N
AC50 (nM): 31622
remark: falling, single point

structure: COc1ccc(Oc2ncc3nc(-c4cn(C)c5ccccc45)c(=O)n(C4CC4)c3n2)cc1
AC50 (nM): 3981
remark: rising, partial curve

structure: COc1ccc(C(=O)CSc2cc(C)nc3nc(C)nn23)cc1OC
AC50 (nM): 2512
remark: rising, full curve, poor fit

structure: C=CCn1c(SCC(=O)Nc2cc(C)ccc2C)nnc1-c1cnccn1
AC50 (nM): 5012
remark: rising, single point

structure: COC(=O)NC(c1cccc(F)c1)[C@@]1(C(=O)OC)CCCC1=O (some centres unmarked)
AC50 (nM): 5012
remark: rising, single point

structure: O=C(OCCN1C(=O)c2ccccc2C1=O)c1cc(S(=O)(=O)N2CCOCC2)ccc1Cl
AC50 (nM): 10000
remark: rising, single point

structure: CCCC1=C(C(=O)OCC)C(c2ccc(F)cc2)n2ncnc2N1 (centres unmarked)
AC50 (nM): 31622
remark: rising, single point

structure: Cc1ccc(N2CCN(S(=O)(=O)N(C)C)CC2)c(C)c1
AC50 (nM): 3162
remark: falling, partial curve

structure: Cc1oc(-c2ccc(Cl)cc2)nc1CN1CCCC(C(=O)NCc2ccco2)C1 (centres unmarked)
AC50 (nM): 10000
remark: falling, partial curve

structure: c1ccc(-c2csc(Nc3nc(N4CCOCC4)nc(N4CCOCC4)n3)n2)cc1
AC50 (nM): 125.9
remark: falling, full curve

structure: c1ccc(CNc2nc3ccccc3n2CCN2CCOCC2)nc1
AC50 (nM): 5012
remark: rising, single point

structure: O=C(Nc1ccc2c(c1)Cc1ccccc1-2)c1ccco1
AC50 (nM): 3981
remark: falling, partial curve

structure: O=c1c(-c2ccc(F)cc2)nc2cnc(Nc3ccccc3)nc2n1Cc1cccs1
AC50 (nM): 12589
remark: rising, partial curve

structure: O=C(/C=C/c1ccc(O)c(O)c1)O[C@@H](C(=O)O)[C@@H](OC(=O)/C=C/c1ccc(O)c(O)c1)C(=O)O
AC50 (nM): 31622
remark: falling, single point

structure: Brc1cc2[nH]cnc2c2ccccc12
AC50 (nM): 125.9
remark: falling, full curve, poor fit

structure: COc1ccc(OC)c(NS(=O)(=O)c2ccc3c(c2)n(C)c(=O)n3C)c1
AC50 (nM): 5012
remark: falling, single point

structure: O=C(NCc1cccs1)C1CCCN(S(=O)(=O)c2cccc3cccnc23)C1 (centres unmarked)
AC50 (nM): 100
remark: falling, single point

2 of the entries, repeated:

{"structure": "O=C(OCCN1C(=O)c2ccccc2C1=O)c1cc(S(=O)(=O)N2CCOCC2)ccc1Cl", "AC50 (nM)": "10000", "remark": "rising, single point"}
{"structure": "COc1ccc(Oc2ncc3nc(-c4cn(C)c5ccccc45)c(=O)n(C4CC4)c3n2)cc1", "AC50 (nM)": "3981", "remark": "rising, partial curve"}